Consider one molecule from paper PMC4958977, “Revisiting the mechanism of coagulation factor XIII activation and regulation from a structure/functional perspective” (Scientific Reports, 2016).

Amino acid sequences for entries named in this document (tags omitted). A change or cut given only in a name is not applied to a line headed by its entry.
UniProt P00488: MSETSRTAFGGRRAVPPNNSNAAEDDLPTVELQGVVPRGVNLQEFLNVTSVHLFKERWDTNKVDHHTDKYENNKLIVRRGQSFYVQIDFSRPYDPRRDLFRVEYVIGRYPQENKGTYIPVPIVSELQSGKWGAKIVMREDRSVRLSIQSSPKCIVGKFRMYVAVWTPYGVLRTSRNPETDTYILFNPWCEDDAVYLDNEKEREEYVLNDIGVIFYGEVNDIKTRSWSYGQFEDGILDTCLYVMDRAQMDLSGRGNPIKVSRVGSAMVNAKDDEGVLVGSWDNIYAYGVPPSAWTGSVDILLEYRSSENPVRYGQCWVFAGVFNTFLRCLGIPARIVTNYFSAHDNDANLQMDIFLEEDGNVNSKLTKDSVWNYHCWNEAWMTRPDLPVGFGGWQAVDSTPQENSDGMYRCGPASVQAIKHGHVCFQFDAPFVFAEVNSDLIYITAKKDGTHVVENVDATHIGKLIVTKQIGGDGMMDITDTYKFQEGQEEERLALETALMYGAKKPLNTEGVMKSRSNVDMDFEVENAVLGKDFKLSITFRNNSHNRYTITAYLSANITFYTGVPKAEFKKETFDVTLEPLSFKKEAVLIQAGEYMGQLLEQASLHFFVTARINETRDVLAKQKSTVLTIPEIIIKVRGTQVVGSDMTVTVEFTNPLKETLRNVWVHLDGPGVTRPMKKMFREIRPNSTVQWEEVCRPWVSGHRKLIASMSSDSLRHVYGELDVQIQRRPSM

No constants are given. Whether binding was seen depends on the method and setting. A result given as binding can be weak or reduced; the word gives no strength.

For the experiment, the target named is coagulation factor XIII A subunit (zymogenic, in the plasma FXIIIA2B2 heterotetramer) (human) (UniProt P00488). Nature of the experiment: SEC; purified FXIIIA2B2 from Fibrogammin P, without thrombin, 0-25 mM CaCl2, 20 mM Tris, 120 mM NaCl, pH 7.4, 60 minutes at 30 degrees; Superdex 200; peaks checked by native PAGE and mass spectrometry; the partners were purified together as the complex; both purified. In general terms: In gel filtration, larger molecules generally elute earlier.

B1: coagulation factor XIII B subunit (natural protein, human, UniProt P05160 21-661, looked up)
chain: EEKPCGFPHVENGRIAQYYYTFKSFYFPMSIDKKLSFFCLAGYTTESGRQEEQTTCTTEGWSPEPRCFKKCTKPDLSNGYISDVKLLYKIQENMRYGCASGYKTTGGKDEEVVQCLSDGWSSQPTCRKEHETCLAPELYNGNYSTTQKTFKVKDKVQYECATGYYTAGGKKTEEVECLTYGWSLTPKCTKLKCSSLRLIENGYFHPVKQTYEEGDVVQFFCHENYYLSGSDLIQCYNFGWYPESPVCEGRRNRCPPPPLPINSKIQTHSTTYRHGEIVHIECELNFEIHGSAEIRCEDGKWTEPPKCIEGQEKVACEEPPFIENGAANLHSKIYYNGDKVTYACKSGYLLHGSNEITCNRGKWTLPPECVENNENCKHPPVVMNGAVADGILASYATGSSVEYRCNEYYLLRGSKISRCEQGKWSSPPVCLEPCTVNVDYMNRNNIEMKWKYEGKVLHGDLIDFVCKQGYDLSPLTPLSELSVQCNRGEVKYPLCTRKESKGMCTSPPLIKHGVIISSTVDTYENGSSVEYRCFDHHFLEGSREAYCLDGMWTTPPLCLEPCTLSFTEMEKNNLLLKWDFDNRPHILHGEYIEFICRGDTYPAELYITGSILRMQCDRGQLKYPRCIPRQSTLSYQEPLRT
notes: human coagulation factor XIII B subunit from plasma, ten Sushi domains; 80 kDa; also called FXIIIB; FXIIIB2; source: purified as FXIIIA2B2 from plasma concentrate Fibrogammin P (CSL Behring), gel filtration on Superdex 200
As to B1, the binding entry was “binds”.
